These are yes or no findings as the source states them, for the method shown. Binding seen in cells or lysates may run through a third protein. Some results given as binding are weak or reduced against the parent protein; the word gives no strength. Tags and fused reporters may be left off the sequences shown.
Target: T1, FLAG-tagged Z-nucleic acid-binding protein 1 (ZBP1) (mouse (cDNA from BV2 microglial cells)) (UniProt Q9QY24)
T1 sequence: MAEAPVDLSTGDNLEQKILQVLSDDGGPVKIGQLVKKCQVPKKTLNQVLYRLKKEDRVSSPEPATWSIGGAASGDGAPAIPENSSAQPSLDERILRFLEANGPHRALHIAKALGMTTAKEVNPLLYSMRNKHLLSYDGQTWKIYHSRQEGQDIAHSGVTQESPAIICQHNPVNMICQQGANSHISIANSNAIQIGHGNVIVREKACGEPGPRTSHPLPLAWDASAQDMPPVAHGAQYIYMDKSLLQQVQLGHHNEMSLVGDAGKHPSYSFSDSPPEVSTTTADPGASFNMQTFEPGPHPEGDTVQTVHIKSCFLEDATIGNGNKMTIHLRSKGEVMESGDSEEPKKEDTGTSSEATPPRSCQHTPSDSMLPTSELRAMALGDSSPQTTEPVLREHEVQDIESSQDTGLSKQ
Test: co-IP

By UniProt entry, the sequences of proteins in these tests, tags left out.
UniProt Q9QZL0: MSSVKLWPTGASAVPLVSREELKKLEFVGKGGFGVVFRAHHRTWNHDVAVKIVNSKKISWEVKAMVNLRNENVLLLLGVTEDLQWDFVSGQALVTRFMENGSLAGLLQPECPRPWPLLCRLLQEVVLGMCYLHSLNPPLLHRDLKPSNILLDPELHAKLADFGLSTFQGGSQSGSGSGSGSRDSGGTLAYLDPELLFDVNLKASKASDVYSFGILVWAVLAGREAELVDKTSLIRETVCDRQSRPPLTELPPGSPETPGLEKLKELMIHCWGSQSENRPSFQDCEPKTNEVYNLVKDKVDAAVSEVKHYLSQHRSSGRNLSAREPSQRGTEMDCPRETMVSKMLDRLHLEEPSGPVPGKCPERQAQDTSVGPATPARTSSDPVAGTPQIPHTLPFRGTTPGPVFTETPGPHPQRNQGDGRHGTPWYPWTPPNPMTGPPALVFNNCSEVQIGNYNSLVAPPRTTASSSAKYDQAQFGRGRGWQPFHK

binding: binds
Substance: HA-tagged receptor-interacting protein kinase 3 (RIPK3) (from UniProt Q9QZL0 1-486)

Source: publication PMC12520810
